PubChem BioAssay AID1053208, Peter MacCallum Cancer Centre | 2014
This is an unselected part of about 17,000 reagents. Over the whole deposit, 788 (4.7%) are marked active. 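Calls rest on z-score classes alone; an extra cut-off of viability at most 70% of control was not applied to them.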 A number with no mark means an inactive call.

- Purpose: 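Genes whose silencing cuts survival of bone tumour cells only with doxorubicin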 (primary screen)
- System: mouse osteosarcoma cells, early-passage culture from an engineered mouse model of fibroblastic bone tumour
- Reagents: siRNA pool against mouse genes, 40 nM
- Timing: about 120 h (48 h before drug, then 72 h with drug)
- Challenge: doxorubicin 100 nM for 72 h, roughly 30-40% inhibitory dose
- Measurement: 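Luminescent ATP signal taken as viability with or without 100 nM doxorubicin for 72 h; mean of two wells set against non-targeting siRNA and turned into robust z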
- Reading the numbers: viability z-score with doxorubicin and doxorubicin viability vs non-targeting: higher = more viable cells under doxorubicin; viability z-score without drug: higher = more viable cells with knock-down alone; z-score of drug to no-drug ratio: higher = less drug sensitisation by knock-down
- Call rule: 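Called active if knock-down leaves viability unchanged without drug (z within -2 to 2) but lowers it with doxorubicin (z at or under -2)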

gene	combined z-score class	viability z-score with doxorubicin	viability z-score without drug	z-score of drug to no-drug ratio	doxorubicin viability vs non-targeting
Vmn1r210	no change with or without drug	1.01	1.85	-0.11	1.03
Cilp	no change with or without drug	1.8	1.85	0.67	1.1
Casp12	low cell count with doxorubicin only (active)	-2.14	-0.17	-2.02	0.75
Chic2	no change with or without drug	0.22	0.17	0.22	0.96
Rcn1	no change with or without drug	-0.9	-0.34	-0.67	0.86
Bnipl	no change with or without drug	-0.67	0.67	-1.01	0.88
Aqp8	no change with or without drug	-1.35	-1.18	-0.56	0.82
Nanos2	no change with or without drug	0.22	1.52	-0.67	0.96
Serpinb8	no change with or without drug	1.69	0.17	1.8	1.09
Dusp2	no change with or without drug	0.9	0.84	0.45	1.02
Gpld1	no change with or without drug	0.11	1.52	-0.79	0.95
Dynlt2b	no change with or without drug	-1.24	-1.35	-0.34	0.83

In a second layout: results already given
Cilp | combined z-score class = no change with or without drug; viability z-score with doxorubicin = 1.8; viability z-score without drug = 1.85; z-score of drug to no-drug ratio = 0.67; doxorubicin viability vs non-targeting = 1.1
Casp12 | combined z-score class = low cell count with doxorubicin only (active); viability z-score with doxorubicin = -2.14; viability z-score without drug = -0.17; z-score of drug to no-drug ratio = -2.02; doxorubicin viability vs non-targeting = 0.75

Next reagents follow.
gene	combined z-score class	viability z-score with doxorubicin	viability z-score without drug	z-score of drug to no-drug ratio	doxorubicin viability vs non-targeting
Hsd3b7	no change with or without drug	1.24	0.17	1.24	1.05
Tbc1d5	no change with or without drug	0.9	0.34	0.79	1.02
Mogat2	no change with or without drug	0.22	0.17	0.22	0.96
Cdhr1	no change with or without drug	-1.57	-0.34	-1.35	0.8
Aurka	no change with or without drug	-0.56	-1.18	0.34	0.89
Inpp5e	no change with or without drug	0.22	-1.35	1.35	0.96
Exph5	no change with or without drug	1.24	1.52	0.34	1.05
Sdsl	no change with or without drug	-1.46	-0.84	-0.9	0.81
Paip2b	no change with or without drug	0	-1.18	1.01	0.94
Kdelr3	no change with or without drug	-0.22	-0.17	0	0.92
Fut1	no change with or without drug	0.56	0.34	0.45	0.99
Bag2	high cell count without drug only	0.79	2.19	-0.45	1.01
Kctd8	low cell count with and without drug	-2.25	-2.53	-0.67	0.74
Rala	no change with or without drug	1.12	-0.51	1.69	1.04
Or8b39	no change with or without drug	0	0.51	-0.22	0.94
Rbm17	low cell count with doxorubicin only (active)	-3.82	-1.52	-3.15	0.6
Ciz1	no change with or without drug	-0.9	0.34	-1.01	0.86
Or4x11	no change with or without drug	-0.45	-1.85	1.01	0.9
Zfp595	no change with or without drug	-0.45	-1.18	0.45	0.9
Pcdha10	no change with or without drug	-1.57	-0.84	-1.01	0.8
Igsf9	no change with or without drug	-0.9	0.51	-1.12	0.86
Cd59a	no change with or without drug	-0.9	-0.17	-0.79	0.86
